Measured values published in PubChem BioAssay AID1508600 (Functional Genomics Laboratory (NCATS/FGL), 2020).
Out of some 53,000 sequences screened, about 3,700 (7%) were called active.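 How the source made its calls: active means gene knockdowns whose robust z-score for IL-1 alpha signal is at least 2 or at most -2, so actives lie on both sides; inactive means the rest.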 This is one part of the list.

Assay: Components of the Cytosolic LPS Sensing Pathway: Gene Identification via Genome-wide siRNA Screen;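 further: robust z of the log signal after scaling to non-targeting control siRNA wells of the plate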
Details: RAW264.7 macrophages, IL-1a HTRF, actives lie on both sides, screened at 100 nM (by protocol), cells primed 5 h with Pam3CSK4 first
In short: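 IL-1a HTRF of supernatants after 24 hour LipidA transfection of Pam3CSK4-primed (5 hours) RAW264.7 cells, 48h post-siRNA transfection (100 nM). Scores: percent of plate negative-control median, then log-based robust z-score.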

Sequence | z-score
GGCAUUGAAGACAAGACCCTT against Mtpap | inactive: -0.188
CAAAUCAAGAGCCUCUAUGTT against Acsl5 | inactive: 0.548
CCAUGUCUAUGAGUGUAGATT against Camsap3 | inactive: 1.55
GCCCACCAUUCAGAUAGAGTT against Tacstd2 | inactive: 0.0833
CCUUUGACUUCACUAUUGATT against Map4k2 | inactive: 0.599
CGCGGUAUUCUCCUUGAAGTT against Ccr4 | inactive: 1.07
GCCGAGCUCAAAACACAACTT against Txnl4a | inactive: 0.948
GGAGUUUGAACGUGAGCGGTT against Ndufb7 | inactive: 0.583
GUCAUUUUGCUAGUGGUGATT against Olfr142 | inactive: 0.344
GGCUAUUGACUUCAUAGACTT against Dusp1 | inactive: -0.0378
CCUUAUAGCAUAAGCUUUATT against Olfr768 | active: 2.04
GGACAGCAACUAACAUUCATT against Ccdc84 | inactive: 0.869
GCCAUUUCCUUCAGUAGUATT against Olfr1355 | inactive: 0.922
GCAUAUGCGAACAGUAAAATT against Rab28 | inactive: -0.182
CGCAGAUAAUAUCUUUGUCTT against Olfr461 | inactive: 0.389
GGUGUAUUGAGCUAAACAUTT against Rnft2 | inactive: -0.344
GGGCAUCAUGAAACUAUGUTT against Kbtbd4 | active: -2.59
CCAGCGACUACAGCAAAUATT against Gcg | inactive: 0.968
GGACGGCUCUAAAGAUGAGTT against Spin1 | inactive: -1.41
GCUUUUAUACACUUCCCUCTT against Nmt1 | inactive: 0.834
CCUACCCUACUAAUGAAUUTT against Cldn4 | inactive: 0.0496
GCCCAUCAGUGAGGUGCUATT against Adh7 | inactive: -0.451

Sequence | z-score
GCAAAGACAAUCUUUAAGGTT against Pde4d | inactive: -0.747
GCUGCCUACACCUUUUACGTT against Abhd8 | inactive: 0.0117
GCAUUAAAAACCCUUUUUGTT against B230354K17Rik | inactive: 1.68
GCCUUGCUGCCAGAACCUATT against Sumf2 | inactive: -0.171
GCAUAAGUCCCUCUUAGUGTT against Slc6a7 | inactive: 0.177
CGAACAGUCUGUAUGGCGATT against Jak1 | inactive: 1.07
GGAAGACAGGGACAAUACCTT against Car15 | active: -2.36
CGAGUGUUGAAUAUUGUGATT against Gpr65 | inactive: 0.158
GCCAGCUACUCUCUUGAGATT against Olfr419 | inactive: -1.03
GCCCACAUCUGAUCUUAAATT against Tor1aip2 | inactive: -1.59
AUCUCUCGGUGGUGGACUGTT against Olfr1474 | inactive: 0.583
CUGCUUUUGAGUCUGGCGATT against Irgc1 | inactive: -0.115
GCUAUUGGACAGCUUCUACTT against Olfr1313 | inactive: -0.0581
GGAUAGCGUGAAAUGAUUATT against Cyb5r1 | inactive: 1.02
GGGACUGAAUUUAGUUUCATT against Prx | inactive: -0.206
CGAUAAGAAAAGCUUGUUGTT against Nub1 | inactive: -0.0304
GGGAAAGGAAAGAAGAAGATT against Srp19 | inactive: 0.257
GGAUGUCUCAACAUUCUUCTT against Vmn1r50 | inactive: 0.313
CGAUCCAAUCAAAACUAGUTT against Ddx41 | inactive: -0.944
GAAAAAUCAUGAAGCCAUATT against Olfr203 | inactive: -0.0109
GGAUUACAACAACUAUGGCTT against Pla2g1b | inactive: 0.288
GGGCUGAUCUGGAUCAAUATT against Irf1 | inactive: 0.129

As entered above:
GAAAAAUCAUGAAGCCAUATT against Olfr203 | z-score: inactive: -0.0109
CGAACAGUCUGUAUGGCGATT against Jak1 | z-score: inactive: 1.07
CGAGUGUUGAAUAUUGUGATT against Gpr65 | z-score: inactive: 0.158
GCAUAAGUCCCUCUUAGUGTT against Slc6a7 | z-score: inactive: 0.177
GGGAAAGGAAAGAAGAAGATT against Srp19 | z-score: inactive: 0.257
AUCUCUCGGUGGUGGACUGTT against Olfr1474 | z-score: inactive: 0.583

The list continues.

Sequence | z-score
GGAGAUAAGAGAUCACAUCTT against Oxnad1 | inactive: 0.122
GGGUUUAUUACAAUCAAACTT against Liph | inactive: 1.49
GGCCAGAACUGUUCCAAUUTT against Cilp | inactive: 1.15
GGUUGGAUUAUUAGGAAUUTT against Dnah5 | inactive: 0.0387
CCCUGAUGUUCUGUUUGAATT against Uba5 | inactive: 0.687
GCUGGAACUUAGUGUUCAGTT against Kat6b | inactive: 1.45
GGUUCAACUCUGUGGUCACTT against C1qc | inactive: 0.247
GGGAUUCAGACAUGUGCUGTT against 4930503E14Rik | inactive: -0.658
CCAGAUGUGAAACAUGACATT against Upk3a | inactive: -1.57
CCCACUCUUUGUGUACUGATT against Olfr262 | active: -2.1
CCAGCACUCGAAAAAGAUGTT against Pdzd8 | inactive: 0.0208
GGAAACUGGACCAGACUAUTT against Smarcd1 | inactive: -0.0183
GGGUUGCCACAUGUUAUAUTT against Smad2 | inactive: -0.0821
GCUGAACAGGUUACGAAAATT against Ints14 | inactive: 1.69
GGAAAAGUGUACGUGAUCATT against Prkce | inactive: -1.75
GGACAAGAUGCGAAAAGCATT against Tbrg4 | inactive: -0.861
CCUGUCGACGGAAUUUUAGTT against Zfp287 | inactive: -0.349
GGAUGAAGACAUGCUCACATT against Pcdhb6 | inactive: -0.551
GGGAAUGAAAUGUUCUUCGTT against Ttl | inactive: -0.121
CGCAAGAGAGUGGAUUUCUTT against Cpb1 | inactive: 1.2
GCGUACGUGAUCUCAGUCUTT against Ttll1 | inactive: -0.833
GGUCUAAGGCAUGGGUCAATT against Odf3b | inactive: -1.18

Sequence | z-score
GGAACAGAUAACAUUAUGGTT against Cpeb3 | active: 2.79
GGCUUUAUAUGAAACUCCUTT against Acrv1 | active: -2.01
GCCACAUUCUUCUCAACCUTT against Tas2r106 | active: -2.14
GGGCUUUGCUGUCUAUGCATT against Dmwd | inactive: -0.617
GCCGUACAGUAAGCACUACTT against Smyd2 | inactive: 0.796
GGUGCUCAAUAAAUGUAAATT against Cd151 | inactive: -1.26
CCAAAAAUGCAACCCUCACTT against Serinc2 | inactive: -0.308
GCAUAAAGCACCCGGAGAGTT against Zbtb32 | inactive: -1.53
GCGAUACAACUCUUAUGACTT against Dennd5b | inactive: -0.521
GGUAGAACAACAGAACAAUTT against Myo5b | active: 2.9
CCUAAAGAGGUGGUUGAACTT against Zfp688 | inactive: -1
GGCAUGACUUCAUCGAGACTT against Tmem189 | inactive: 0.124
CCCUGUUGCUGACAUUUAUTT against Wasf3 | inactive: 0.167
GGUCUAUCGCUUGCUUUUUTT against Abca2 | inactive: 1.67
GGUUGACACUCUGAGGGAATT against Pld2 | inactive: -0.175
GGAACGUAAACUAAGCCCGTT against Foxb1 | inactive: 0.458
GCAGUUAUUCUGAGAGUGATT against Olfr1385 | inactive: 0.08
GGGUUAGAGUAAGGUAUUATT against Tsn | inactive: -0.879
CGGCUGCAUUUCAACAAGGTT against Snrpc | inactive: -1.92
CGGAUUCGUCUGUUUUCUGTT against Ddi2 | inactive: 1.97
GGCUUUUGAAGUAAAUACATT against Pcdhb14 | active: 2.65
CCCACCUAGCAUACGACUATT against Kazald1 | inactive: 0.299

Sequence | z-score
AUGGAGUCCUACAUUCUAGTT against Ccdc92b | inactive: -0.998
CCCUAACUGUAUGGACCAUTT against Coa3 | inactive: 1.15
CCGCUAGAUUUCUCUUACCTT against Abhd14b | inactive: 0.325
GAGGAAGACACUUUUCCUGTT against Atp23 | inactive: 0.765
GGAUGUUGCUCCAAGUGGATT against Nmur1 | inactive: 0.258
GGUGAAAUCCAUUAAAGAATT against Fth1 | active: -2.06
GCAACUUUAAUGACAGCGUTT against Moxd1 | inactive: -0.211
GGUGUUAUGCCUAUGUAUGTT against Mnx1 | inactive: -0.498
GGCAUCUUUGGAGACUGGUTT against Sycn | inactive: 0.598
GGUGACAUUUGAAAAUGUCTT against Slc25a12 | inactive: 0.411
CCGAGUGGUGAGUCUUCUUTT against Olfr629 | inactive: -1.55
GCUGGGACCUCAGAAAGUUTT against Sun3 | inactive: 0.253
GGCCAAAAAUGAAAGAAAUTT against Myo15 | inactive: -0.251
CCUCUCCUCUAUUCAACACTT against Olfr472 | inactive: 0.934
GCAGAGCGGUAAUCUAUCUTT against 5031410I06Rik | inactive: -1.31
GGGACUUGUCCAAUAAAGUTT against Aimp2 | inactive: -0.375
GGUACACUUUCAGAAAUGUTT against Exo5 | inactive: -0.84
GGAACUGCCAGUUGACAUUTT against Olfr689 | inactive: 1.21
CCACCUUUCGUUGUUACAATT against Stk36 | inactive: 0.011
